Measurements published in publication PMC2993708.
Results are given in words; binding and its absence hold for the method and conditions named. Binding seen in cells or lysates may run through a third protein. Some entries that bind do so weakly or less than the wild type. Tags and fused reporters may be left off the sequences shown.

The chains behind the UniProt entries cited, without tags or fusion partners.
UniProt O35134: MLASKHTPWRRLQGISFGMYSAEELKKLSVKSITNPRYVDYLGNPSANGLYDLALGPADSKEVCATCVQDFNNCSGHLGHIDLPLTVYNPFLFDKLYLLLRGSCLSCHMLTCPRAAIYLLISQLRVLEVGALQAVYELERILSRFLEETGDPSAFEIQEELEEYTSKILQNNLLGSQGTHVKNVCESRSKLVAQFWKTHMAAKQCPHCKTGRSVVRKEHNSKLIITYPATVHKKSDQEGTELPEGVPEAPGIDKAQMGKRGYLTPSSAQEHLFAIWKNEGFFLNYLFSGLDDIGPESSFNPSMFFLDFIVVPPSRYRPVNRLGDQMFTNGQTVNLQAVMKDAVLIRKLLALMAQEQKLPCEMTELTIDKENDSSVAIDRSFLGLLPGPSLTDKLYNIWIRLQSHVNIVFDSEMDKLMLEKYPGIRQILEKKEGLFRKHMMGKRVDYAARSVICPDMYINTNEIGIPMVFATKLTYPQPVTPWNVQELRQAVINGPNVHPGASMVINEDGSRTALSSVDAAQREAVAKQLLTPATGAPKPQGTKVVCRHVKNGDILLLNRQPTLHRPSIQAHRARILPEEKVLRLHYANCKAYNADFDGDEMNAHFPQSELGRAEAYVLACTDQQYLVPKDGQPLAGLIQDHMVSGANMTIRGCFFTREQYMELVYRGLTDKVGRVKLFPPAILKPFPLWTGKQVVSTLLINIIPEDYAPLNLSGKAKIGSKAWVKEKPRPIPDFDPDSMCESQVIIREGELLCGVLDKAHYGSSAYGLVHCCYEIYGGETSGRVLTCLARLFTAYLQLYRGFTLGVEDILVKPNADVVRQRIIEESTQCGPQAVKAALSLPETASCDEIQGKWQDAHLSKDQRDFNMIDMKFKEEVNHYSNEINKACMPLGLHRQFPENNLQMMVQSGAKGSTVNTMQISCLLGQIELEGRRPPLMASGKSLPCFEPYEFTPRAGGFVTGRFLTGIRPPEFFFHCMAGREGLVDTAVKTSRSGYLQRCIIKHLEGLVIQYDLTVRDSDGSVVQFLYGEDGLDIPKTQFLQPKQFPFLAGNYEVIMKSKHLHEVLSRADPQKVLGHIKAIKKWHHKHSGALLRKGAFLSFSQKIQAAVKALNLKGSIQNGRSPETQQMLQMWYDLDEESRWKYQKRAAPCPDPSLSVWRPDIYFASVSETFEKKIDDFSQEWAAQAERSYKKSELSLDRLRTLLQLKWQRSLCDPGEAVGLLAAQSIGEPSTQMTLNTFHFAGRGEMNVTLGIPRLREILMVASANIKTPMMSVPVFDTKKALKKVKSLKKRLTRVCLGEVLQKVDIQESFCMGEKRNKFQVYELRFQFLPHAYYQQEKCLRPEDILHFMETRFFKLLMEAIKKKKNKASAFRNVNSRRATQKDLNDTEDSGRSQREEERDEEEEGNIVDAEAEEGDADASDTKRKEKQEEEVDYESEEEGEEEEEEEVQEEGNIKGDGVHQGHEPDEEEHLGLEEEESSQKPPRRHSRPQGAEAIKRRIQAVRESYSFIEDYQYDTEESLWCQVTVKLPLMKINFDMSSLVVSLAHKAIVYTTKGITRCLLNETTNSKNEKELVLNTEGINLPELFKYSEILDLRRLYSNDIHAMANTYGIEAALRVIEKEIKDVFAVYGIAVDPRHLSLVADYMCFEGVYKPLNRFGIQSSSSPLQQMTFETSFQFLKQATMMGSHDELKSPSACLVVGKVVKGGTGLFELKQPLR
UniProt Q61937: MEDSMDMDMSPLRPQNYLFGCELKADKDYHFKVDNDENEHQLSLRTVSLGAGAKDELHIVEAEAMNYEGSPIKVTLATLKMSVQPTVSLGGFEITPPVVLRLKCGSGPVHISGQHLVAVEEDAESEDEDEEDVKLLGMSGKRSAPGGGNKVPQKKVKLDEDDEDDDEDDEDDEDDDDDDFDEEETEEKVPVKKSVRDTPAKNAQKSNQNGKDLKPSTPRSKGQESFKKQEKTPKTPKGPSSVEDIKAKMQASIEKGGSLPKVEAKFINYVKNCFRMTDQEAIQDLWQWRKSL
UniProt P11103: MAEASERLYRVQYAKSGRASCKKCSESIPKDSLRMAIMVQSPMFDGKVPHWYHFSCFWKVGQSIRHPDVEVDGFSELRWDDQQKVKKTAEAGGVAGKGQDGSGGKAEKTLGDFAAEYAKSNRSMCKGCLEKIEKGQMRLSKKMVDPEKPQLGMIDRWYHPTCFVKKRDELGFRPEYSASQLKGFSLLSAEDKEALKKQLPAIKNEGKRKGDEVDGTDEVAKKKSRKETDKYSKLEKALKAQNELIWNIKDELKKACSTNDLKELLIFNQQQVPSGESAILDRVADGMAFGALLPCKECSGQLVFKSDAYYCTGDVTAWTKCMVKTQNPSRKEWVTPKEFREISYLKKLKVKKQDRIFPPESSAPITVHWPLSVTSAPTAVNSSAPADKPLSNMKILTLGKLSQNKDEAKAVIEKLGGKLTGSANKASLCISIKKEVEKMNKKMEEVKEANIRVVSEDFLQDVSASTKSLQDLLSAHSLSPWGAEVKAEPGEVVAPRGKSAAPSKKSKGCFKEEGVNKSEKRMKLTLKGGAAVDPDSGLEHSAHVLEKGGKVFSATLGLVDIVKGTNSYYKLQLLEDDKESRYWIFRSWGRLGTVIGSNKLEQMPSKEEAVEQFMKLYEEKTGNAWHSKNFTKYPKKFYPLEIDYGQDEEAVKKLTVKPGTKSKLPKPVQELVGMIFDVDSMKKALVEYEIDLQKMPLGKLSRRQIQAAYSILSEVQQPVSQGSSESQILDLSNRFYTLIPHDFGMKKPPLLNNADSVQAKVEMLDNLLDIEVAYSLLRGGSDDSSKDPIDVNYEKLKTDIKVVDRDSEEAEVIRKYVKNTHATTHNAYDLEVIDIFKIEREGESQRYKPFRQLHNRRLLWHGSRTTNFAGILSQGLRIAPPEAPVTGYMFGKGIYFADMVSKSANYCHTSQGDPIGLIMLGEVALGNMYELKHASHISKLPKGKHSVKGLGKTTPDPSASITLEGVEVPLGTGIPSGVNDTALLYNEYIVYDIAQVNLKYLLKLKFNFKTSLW

T1: biotin tagged CTCF (CTCF-bio) (mouse) (UniProt Q61164)
T1 sequence (chain, biotinylated lysine in the C-terminal tag (by BirA)): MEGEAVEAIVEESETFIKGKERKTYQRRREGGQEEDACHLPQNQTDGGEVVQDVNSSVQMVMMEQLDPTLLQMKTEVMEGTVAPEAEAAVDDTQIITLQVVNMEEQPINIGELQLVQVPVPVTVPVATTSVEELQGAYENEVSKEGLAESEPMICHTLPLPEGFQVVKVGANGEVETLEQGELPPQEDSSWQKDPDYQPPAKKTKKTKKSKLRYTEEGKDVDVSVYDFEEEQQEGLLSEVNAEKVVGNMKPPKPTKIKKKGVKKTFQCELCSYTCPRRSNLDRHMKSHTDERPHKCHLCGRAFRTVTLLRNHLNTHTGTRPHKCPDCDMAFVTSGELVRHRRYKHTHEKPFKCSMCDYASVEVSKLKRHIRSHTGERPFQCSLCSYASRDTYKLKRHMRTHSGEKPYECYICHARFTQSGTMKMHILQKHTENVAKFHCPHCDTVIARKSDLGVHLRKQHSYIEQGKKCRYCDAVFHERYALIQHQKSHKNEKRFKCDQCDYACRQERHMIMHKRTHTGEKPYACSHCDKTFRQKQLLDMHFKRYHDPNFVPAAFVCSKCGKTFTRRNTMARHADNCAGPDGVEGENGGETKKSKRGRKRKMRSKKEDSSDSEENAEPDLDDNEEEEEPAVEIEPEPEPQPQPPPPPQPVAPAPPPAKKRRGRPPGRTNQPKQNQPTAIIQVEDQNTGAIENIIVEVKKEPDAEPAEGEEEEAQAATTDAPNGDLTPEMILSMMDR

T2: Flag-tagged UBF (mouse) (UniProt P25976)
T2 sequence: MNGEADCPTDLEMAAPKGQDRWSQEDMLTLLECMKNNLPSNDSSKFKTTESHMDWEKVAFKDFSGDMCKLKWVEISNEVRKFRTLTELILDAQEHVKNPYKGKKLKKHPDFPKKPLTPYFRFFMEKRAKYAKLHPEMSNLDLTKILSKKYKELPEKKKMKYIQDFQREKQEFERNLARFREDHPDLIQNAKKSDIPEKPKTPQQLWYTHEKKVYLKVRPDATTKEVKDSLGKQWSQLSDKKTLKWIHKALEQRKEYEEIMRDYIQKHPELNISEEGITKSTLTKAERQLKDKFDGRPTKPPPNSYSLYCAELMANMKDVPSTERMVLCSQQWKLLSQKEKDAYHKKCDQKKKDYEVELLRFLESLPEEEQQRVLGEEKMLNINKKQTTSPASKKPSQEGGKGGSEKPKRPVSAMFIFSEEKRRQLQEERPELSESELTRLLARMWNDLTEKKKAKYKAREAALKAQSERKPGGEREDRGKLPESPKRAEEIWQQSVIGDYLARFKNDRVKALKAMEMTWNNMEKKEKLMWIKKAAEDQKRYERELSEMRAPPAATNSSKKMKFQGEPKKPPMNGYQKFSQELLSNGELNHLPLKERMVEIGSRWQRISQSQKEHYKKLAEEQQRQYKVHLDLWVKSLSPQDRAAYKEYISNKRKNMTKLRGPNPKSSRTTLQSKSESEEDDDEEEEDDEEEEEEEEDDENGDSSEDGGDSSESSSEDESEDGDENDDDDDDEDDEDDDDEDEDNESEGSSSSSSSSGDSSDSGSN

T3: untagged CTCF (CCCTC binding factor) (mouse (endogenous in ES cells)) (UniProt Q61164)
T3 sequence: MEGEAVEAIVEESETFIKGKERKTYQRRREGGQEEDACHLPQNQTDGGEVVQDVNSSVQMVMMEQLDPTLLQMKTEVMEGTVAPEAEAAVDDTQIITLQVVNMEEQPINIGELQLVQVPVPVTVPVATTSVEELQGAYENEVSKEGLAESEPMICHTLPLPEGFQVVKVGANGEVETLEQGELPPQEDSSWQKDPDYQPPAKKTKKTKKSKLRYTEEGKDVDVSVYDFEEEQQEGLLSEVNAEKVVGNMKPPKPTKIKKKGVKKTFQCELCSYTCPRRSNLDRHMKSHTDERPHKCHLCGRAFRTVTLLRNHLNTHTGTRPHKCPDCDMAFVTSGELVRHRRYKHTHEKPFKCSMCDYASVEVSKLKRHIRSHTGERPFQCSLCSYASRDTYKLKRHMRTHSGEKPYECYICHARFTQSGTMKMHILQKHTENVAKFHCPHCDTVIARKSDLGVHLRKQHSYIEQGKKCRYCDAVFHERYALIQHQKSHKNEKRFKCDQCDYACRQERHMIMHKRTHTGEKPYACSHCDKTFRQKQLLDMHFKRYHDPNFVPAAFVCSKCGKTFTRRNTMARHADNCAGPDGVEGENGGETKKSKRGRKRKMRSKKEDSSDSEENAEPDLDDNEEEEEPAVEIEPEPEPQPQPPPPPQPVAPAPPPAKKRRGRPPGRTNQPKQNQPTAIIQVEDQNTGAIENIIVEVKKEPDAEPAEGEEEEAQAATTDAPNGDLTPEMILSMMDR


Experiments:
[1] = target: T1, biotin tagged CTCF (CTCF-bio) (mouse); test: pull-down; CTCF-bio held on streptavidin-coupled magnetic beads from ES cell nuclear extracts, western blot; IP buffer (100 mmol/l NaCl, 0.3% NP40, 20 mmol/l Hepes pH8, 0.2 mmol/l EDTA, 10 mmol/l MgCl2); extracts with or without benzonase for 2 hours at 4°C
Flag-tagged UBF (mouse) = target: T2, Flag-tagged UBF (mouse); test: co-IP; anti-Flag M2 agarose, 3h at 4°C, extracts of 293T cells transfected with Flag-UBF alone or with CTCFL; western blot
[2] = target: T3, untagged CTCF (CCCTC binding factor) (mouse (endogenous in ES cells)); test: co-IP; anti-CTCF antiserum on extracts of ES cells expressing both CTCF and CTCF-bio; protein-A sepharose, 4°C, wash buffer 100 mmol/l NaCl, 20 mmol/l Tris pH7.5, 0.3% NP40
[3] = target: T1, biotin tagged CTCF (CTCF-bio) (mouse); test: pull-down; streptavidin pull-down from lung nuclear extracts of mice expressing CTCF-bio, western blot
[4] = target: T1, biotin tagged CTCF (CTCF-bio) (mouse); test: pull-down; not shown; CTCF-bio and UBF in thymus

Molecule | binding [1] | binding (Flag-tagged UBF (mouse)) | other results
large subunit of RNA polymerase I (RPA194) (from UniProt O35134 1-1717) | binds |  | 
nucleophosmin (from UniProt Q61937 1-292) | binds |  | 
endogenous CTCF of 293T cells (protein, UniProt P49711 1-727) MEGDAVEAIVEESETFIKGKERKTYQRRREGGQEEDACHLPQNQTDGGEVVQDVNSSVQMVMMEQLDPTLLQMKTEVMEGTVAPEAEAAVDDTQIITLQVVNMEEQPINIGELQLVQVPVPVTVPVATTSVEELQGAYENEVSKEGLAESEPMICHTLPLPEGFQVVKVGANGEVETLEQGELPPQEDPSWQKDPDYQPPAKKTKKTKKSKLRYTEEGKDVDVSVYDFEEEQQEGLLSEVNAEKVVGNMKPPKPTKIKKKGVKKTFQCELCSYTCPRRSNLDRHMKSHTDERPHKCHLCGRAFRTVTLLRNHLNTHTGTRPHKCPDCDMAFVTSGELVRHRRYKHTHEKPFKCSMCDYASVEVSKLKRHIRSHTGERPFQCSLCSYASRDTYKLKRHMRTHSGEKPYECYICHARFTQSGTMKMHILQKHTENVAKFHCPHCDTVIARKSDLGVHLRKQHSYIEQGKKCRYCDAVFHERYALIQHQKSHKNEKRFKCDQCDYACRQERHMIMHKRTHTGEKPYACSHCDKTFRQKQLLDMHFKRYHDPNFVPAAFVCSKCGKTFTRRNTMARHADNCAGPDGVEGENGGETKKSKRGRKRKMRSKKEDSSDSENAEPDLDDNEDEEEPAVEIEPEPEPQPVTPAPPPAKKRRGRPPGRTNQPKQNQPTAIIQVEDQNTGAIENIIVEVKKEPDAEPAEGEEEEAQPAATDAPNGDLTPEMILSMMDR |  | binds | 
CTCFL (overexpressed, not tagged) (protein, UniProt A2APF3 1-636) MAAAEVPVPSGYFTQIKEQKLKPGDLEEEKEEDGVQRVEAQEGVVKEVEAENSCLLLEARAPVESDRRILTLQTVHLESQDVHLQGLGWLSVPHSEELSGTVPEAEGILQLPSVLWLDPEPQLSLQHCVTVSIPEELYPPEELQRIHFHLLRENVLMAEENPELTPDLDESTALKKPEEDEKDQLPPQGETDKREERLLLLEMKPKEGKDDEIVLTISHLSLEEQQDPPAANQTSVPGAKAAKPKRRRQTKGKPQSFQCDTCPFTSSKLSTFNRHIKIHSNERPHLCHLCLKAFRTVTLLRNHVNTHTGTRPHKCRDCDMAFVTSGELVRHRRYKHTYEKPFKCSLCKYASVEASKMKRHIRSHTGERPFQCCQCAYASRDSYKLKRHMRTHSGEKPYECPTCHVRFTQSGTMKIHIAQKHGENVPKYECPHCATIIARKSDLRVHLRNLHSQSPEEMKCRYCPAGFHERYALIQHQRTHKNEKKFKCKQCDYACKQERCLKAHMRMHTGEKPFSCLACNKHFRQKQLLTVHLRKYHDPNFVPNLHLCLKCDKRFSRWSNLQRHRKKCDPEHETLAPNKDRRPVTRTQASEGEAGHKEGEPQCPGEQALGHQGEAAGSQSPDHGLTCEIIFNMMDK |  | binds | 

More lines, main results first:

binding [1] | binding (Flag-tagged UBF (mouse)) | Molecule | other results
binds |  | poly(ADP-ribose) polymerase (Parp)1 (from UniProt P11103 1-1013) | 
binds |  | upstream binding factor (UBF) (protein, UniProt P25976-2 1-728) MNGEADCPTDLEMAAPKGQDRWSQEDMLTLLECMKNNLPSNDSSKFKTTESHMDWEKVAFKDFSGDMCKLKWVEISNEVRKFRTLTELILDAQEHVKNPYKGKKLKKHPDFPKKPLTPYFRFFMEKRAKYAKLHPEMSNLDLTKILSKKYKELPEKKKMKYIQDFQREKQEFERNLARFREDHPDLIQNAKKSDIPEKPKTPQQLWYTHEKKVYLKVRPDEIMRDYIQKHPELNISEEGITKSTLTKAERQLKDKFDGRPTKPPPNSYSLYCAELMANMKDVPSTERMVLCSQQWKLLSQKEKDAYHKKCDQKKKDYEVELLRFLESLPEEEQQRVLGEEKMLNINKKQTTSPASKKPSQEGGKGGSEKPKRPVSAMFIFSEEKRRQLQEERPELSESELTRLLARMWNDLTEKKKAKYKAREAALKAQSERKPGGEREDRGKLPESPKRAEEIWQQSVIGDYLARFKNDRVKALKAMEMTWNNMEKKEKLMWIKKAAEDQKRYERELSEMRAPPAATNSSKKMKFQGEPKKPPMNGYQKFSQELLSNGELNHLPLKERMVEIGSRWQRISQSQKEHYKKLAEEQQRQYKVHLDLWVKSLSPQDRAAYKEYISNKRKNMTKLRGPNPKSSRTTLQSKSESEEDDDEEEEDDEEEEEEEEDDENGDSSEDGGDSSESSSEDESEDGDENDDDDDDEDDEDDDDEDEDNESEGSSSSSSSSGDSSDSGSN | binding [2]: binds; binding [3]: binds; binding [4]: binds
